The text below walks through data of article PMC5476801.

Sequences of proteins named here, by UniProt entry; tags and fusion partners are left off. Residues count along the entry.
UniProt Q13308, 31-1070: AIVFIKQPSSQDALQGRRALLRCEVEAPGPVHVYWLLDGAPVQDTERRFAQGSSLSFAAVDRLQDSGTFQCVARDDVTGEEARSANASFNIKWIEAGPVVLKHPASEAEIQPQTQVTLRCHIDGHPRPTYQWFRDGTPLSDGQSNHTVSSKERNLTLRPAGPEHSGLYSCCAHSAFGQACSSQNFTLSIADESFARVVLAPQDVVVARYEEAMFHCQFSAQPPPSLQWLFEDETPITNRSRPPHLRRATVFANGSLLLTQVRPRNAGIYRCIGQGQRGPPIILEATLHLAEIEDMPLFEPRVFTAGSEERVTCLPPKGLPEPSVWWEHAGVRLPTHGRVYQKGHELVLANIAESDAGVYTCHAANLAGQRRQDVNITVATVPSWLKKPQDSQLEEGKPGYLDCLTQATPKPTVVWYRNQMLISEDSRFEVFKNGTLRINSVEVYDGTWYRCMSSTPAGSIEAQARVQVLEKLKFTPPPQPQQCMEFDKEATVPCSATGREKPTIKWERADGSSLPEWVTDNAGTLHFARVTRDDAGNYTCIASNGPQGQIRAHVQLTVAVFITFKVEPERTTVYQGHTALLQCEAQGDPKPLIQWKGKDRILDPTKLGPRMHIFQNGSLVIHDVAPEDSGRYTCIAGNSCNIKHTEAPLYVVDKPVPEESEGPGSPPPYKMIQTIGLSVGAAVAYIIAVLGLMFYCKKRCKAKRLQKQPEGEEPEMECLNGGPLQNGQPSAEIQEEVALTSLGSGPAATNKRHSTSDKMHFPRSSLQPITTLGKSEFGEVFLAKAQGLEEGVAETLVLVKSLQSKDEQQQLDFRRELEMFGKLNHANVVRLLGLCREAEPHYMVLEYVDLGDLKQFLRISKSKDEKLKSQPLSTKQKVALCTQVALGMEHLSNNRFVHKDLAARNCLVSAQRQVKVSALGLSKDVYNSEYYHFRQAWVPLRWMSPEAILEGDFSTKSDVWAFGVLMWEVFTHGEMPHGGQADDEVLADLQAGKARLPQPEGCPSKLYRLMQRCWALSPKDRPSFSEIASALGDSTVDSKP

This data set concerns the target tyrosine protein kinase-7 (PTK7) (human (CEM and HeLa cells)) (UniProt Q13308). The data set is described as follows: flow cytometry on cells. As to conditions: 37 °C, 30 min, protein on the cell surface, label: 5'-FAM, folded or branched DNA.

Construct, isoform or probe ends are uncertain for at least one entry. Results from cells or extracts need not show a direct contact. At least one verdict rests on a figure or table, not on a statement of the authors.

Turning to “GGTGGTGGAAGGACGTCCACCACCTCCTTCAAAAAAAAATCTAACTGCTGCGCCGCCGGGAAAATACTGTACGGTTAGA [FAM-sgc8c (hairpin-locked sgc8c aptamer)]”, the binding result by setting is: (CEM cells) “binds”; (HeLa cells) “binds”.
